Reference: patent publication US20220016257A1
Residue numbers refer to the chain shown, from its start. These are yes or no findings as the source states them, for the method shown. Some binding calls cover weakened binding; strength is not graded here.

How the values were obtained:
[1] = biological target: T1, EC1-deleted human CDH6 (EC1 deletion mutant, on cells) (human) (UniProt P55285); test: flow cytometry on transfected 293α cells
T1 sequence: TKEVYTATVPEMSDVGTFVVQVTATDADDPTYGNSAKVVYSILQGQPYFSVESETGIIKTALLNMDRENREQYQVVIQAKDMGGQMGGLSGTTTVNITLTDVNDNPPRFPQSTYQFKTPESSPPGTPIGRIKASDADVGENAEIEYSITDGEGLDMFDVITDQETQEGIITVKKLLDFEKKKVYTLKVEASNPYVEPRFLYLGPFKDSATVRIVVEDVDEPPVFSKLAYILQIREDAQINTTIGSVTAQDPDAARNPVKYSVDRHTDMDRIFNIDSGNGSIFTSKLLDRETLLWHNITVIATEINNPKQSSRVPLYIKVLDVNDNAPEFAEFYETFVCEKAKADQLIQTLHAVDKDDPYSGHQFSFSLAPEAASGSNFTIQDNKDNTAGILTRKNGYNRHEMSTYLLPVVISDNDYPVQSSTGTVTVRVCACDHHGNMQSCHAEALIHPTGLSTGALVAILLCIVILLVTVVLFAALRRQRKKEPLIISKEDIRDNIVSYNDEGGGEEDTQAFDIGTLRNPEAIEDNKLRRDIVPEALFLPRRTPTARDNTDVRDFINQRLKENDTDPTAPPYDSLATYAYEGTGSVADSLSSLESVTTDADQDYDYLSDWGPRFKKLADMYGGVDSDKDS

[2] = biological target: T2, EC2-deleted human CDH6 (EC2 deletion mutant, on cells) (human) (UniProt P55285); test: flow cytometry on transfected 293α cells
T2 sequence: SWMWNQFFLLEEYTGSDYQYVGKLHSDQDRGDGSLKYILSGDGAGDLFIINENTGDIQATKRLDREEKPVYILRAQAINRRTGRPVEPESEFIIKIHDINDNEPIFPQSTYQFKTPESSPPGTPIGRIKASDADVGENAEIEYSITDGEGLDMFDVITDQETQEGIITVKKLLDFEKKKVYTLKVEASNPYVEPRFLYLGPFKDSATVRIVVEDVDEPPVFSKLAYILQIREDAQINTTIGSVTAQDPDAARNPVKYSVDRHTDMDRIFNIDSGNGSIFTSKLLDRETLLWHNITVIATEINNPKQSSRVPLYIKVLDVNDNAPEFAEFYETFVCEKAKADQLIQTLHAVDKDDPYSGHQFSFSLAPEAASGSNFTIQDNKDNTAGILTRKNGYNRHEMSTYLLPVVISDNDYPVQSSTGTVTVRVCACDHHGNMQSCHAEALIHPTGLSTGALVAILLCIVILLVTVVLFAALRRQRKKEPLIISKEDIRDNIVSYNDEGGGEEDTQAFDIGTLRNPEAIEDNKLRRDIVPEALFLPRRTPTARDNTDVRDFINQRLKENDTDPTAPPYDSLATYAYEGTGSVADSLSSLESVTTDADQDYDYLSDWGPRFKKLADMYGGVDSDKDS

[3] = biological target: EC3-deleted human CDH6 (EC3 deletion mutant, on cells) (human) (UniProt P55285); test: flow cytometry on transfected 293α cells
[4] = biological target: T3, EC4-deleted human CDH6 (EC4 deletion mutant, on cells) (human) (UniProt P55285); test: flow cytometry on transfected 293α cells
T3 sequence: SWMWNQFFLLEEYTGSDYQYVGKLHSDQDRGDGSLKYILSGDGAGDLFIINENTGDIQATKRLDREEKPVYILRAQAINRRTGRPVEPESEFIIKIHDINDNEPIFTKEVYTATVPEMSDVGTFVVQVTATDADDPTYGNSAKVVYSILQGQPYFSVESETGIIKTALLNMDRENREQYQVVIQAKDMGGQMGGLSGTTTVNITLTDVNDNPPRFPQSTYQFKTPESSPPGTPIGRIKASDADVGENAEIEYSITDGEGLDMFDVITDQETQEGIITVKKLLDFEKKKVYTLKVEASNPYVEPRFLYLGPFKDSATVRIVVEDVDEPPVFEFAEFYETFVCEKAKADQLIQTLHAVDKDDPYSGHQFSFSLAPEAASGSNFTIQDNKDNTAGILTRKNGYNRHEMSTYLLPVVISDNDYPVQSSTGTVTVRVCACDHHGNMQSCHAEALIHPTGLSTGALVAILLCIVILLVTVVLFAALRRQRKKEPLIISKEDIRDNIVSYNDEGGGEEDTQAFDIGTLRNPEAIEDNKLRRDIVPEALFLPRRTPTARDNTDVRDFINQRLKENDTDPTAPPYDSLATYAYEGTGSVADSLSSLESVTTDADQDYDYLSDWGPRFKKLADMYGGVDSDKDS

[5] = biological target: T1, EC1-deleted human CDH6 (EC1 deletion mutant, on cells) (human); test: flow cytometry, 293α cells transiently expressing EC1-deleted hCDH6 (open) against untransfected cells (shaded), APC anti-human IgG F(ab')2
[6] = biological target: T2, EC2-deleted human CDH6 (EC2 deletion mutant, on cells) (human); test: flow cytometry, 293α cells transiently expressing EC2-deleted hCDH6 (open) against untransfected cells (shaded), APC anti-human IgG F(ab')2
[7] = biological target: EC3-deleted human CDH6 (EC3 deletion mutant, on cells) (human) (UniProt P55285); test: flow cytometry, 293α cells transiently expressing EC3-deleted hCDH6 (open) against untransfected cells (shaded), APC anti-human IgG F(ab')2
[8] = biological target: T3, EC4-deleted human CDH6 (EC4 deletion mutant, on cells) (human); test: flow cytometry, 293α cells transiently expressing EC4-deleted hCDH6 (open) against untransfected cells (shaded), APC anti-human IgG F(ab')2
[9] = biological target: T4, EC5-deleted human CDH6 (EC5 deletion mutant, on cells) (human) (UniProt P55285); test: flow cytometry on transfected 293α cells
T4 sequence: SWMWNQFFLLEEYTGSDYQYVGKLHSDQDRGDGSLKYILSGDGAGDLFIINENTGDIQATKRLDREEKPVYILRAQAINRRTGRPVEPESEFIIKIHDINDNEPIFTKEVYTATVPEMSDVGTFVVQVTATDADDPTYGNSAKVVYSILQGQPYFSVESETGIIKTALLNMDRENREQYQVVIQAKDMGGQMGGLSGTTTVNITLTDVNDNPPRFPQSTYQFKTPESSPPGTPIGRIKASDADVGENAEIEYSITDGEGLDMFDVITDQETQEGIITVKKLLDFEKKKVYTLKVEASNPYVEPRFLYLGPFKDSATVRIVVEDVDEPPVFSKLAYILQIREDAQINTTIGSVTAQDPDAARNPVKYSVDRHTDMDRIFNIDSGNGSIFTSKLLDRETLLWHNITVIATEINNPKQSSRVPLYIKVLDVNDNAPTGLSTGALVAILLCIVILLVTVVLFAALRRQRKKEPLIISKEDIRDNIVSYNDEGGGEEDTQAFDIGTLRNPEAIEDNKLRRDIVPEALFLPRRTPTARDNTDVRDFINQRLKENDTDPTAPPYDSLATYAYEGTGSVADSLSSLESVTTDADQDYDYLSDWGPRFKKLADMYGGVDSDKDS

[10] = biological target: T4, EC5-deleted human CDH6 (EC5 deletion mutant, on cells) (human); test: flow cytometry, 293α cells transiently expressing EC5-deleted hCDH6 (open) against untransfected cells (shaded), APC anti-human IgG F(ab')2
[11] = biological target: T1, EC1-deleted human CDH6 (EC1 deletion mutant, on cells) (human); test: flow cytometry on transfected 293α cells, antibody 20 nM
[12] = biological target: T2, EC2-deleted human CDH6 (EC2 deletion mutant, on cells) (human); test: as above
[13] = biological target: T3, EC4-deleted human CDH6 (EC4 deletion mutant, on cells) (human); test: as above
[14] = biological target: T4, EC5-deleted human CDH6 (EC5 deletion mutant, on cells) (human); test: as above
[15] = biological target: T1, EC1-deleted human CDH6 (EC1 deletion mutant, on cells) (human); test: flow cytometry, 293α cells transiently expressing EC1-deleted hCDH6 (open) against untransfected cells (shaded), antibody 20 nM, anti-rat IgG-FITC [2]
[16] = biological target: T2, EC2-deleted human CDH6 (EC2 deletion mutant, on cells) (human); test: flow cytometry, 293α cells transiently expressing EC2-deleted hCDH6 (open) against untransfected cells (shaded), antibody 20 nM, anti-rat IgG-FITC [3]
[17] = biological target: T3, EC4-deleted human CDH6 (EC4 deletion mutant, on cells) (human); test: flow cytometry, 293α cells transiently expressing EC4-deleted hCDH6 (open) against untransfected cells (shaded), antibody 20 nM, anti-rat IgG-FITC [5]
[18] = biological target: T4, EC5-deleted human CDH6 (EC5 deletion mutant, on cells) (human); test: flow cytometry, 293α cells transiently expressing EC5-deleted hCDH6 (open) against untransfected cells (shaded), antibody 20 nM, anti-rat IgG-FITC [6]

Measured: binding

B1: anti-CDH6 antibody NOV0712 (antibody, V domains shown)
VH: QVQLLESGGGLVQPGGSLRLSCAASGFTFSSHGMHWVRQAPGKGLEWVSVISGSGSNTGYADSVKGRFTISRDNSKNTLYLQMNSLRAEDTAVYYCARQWGSYAFDSWGQGTLVTVSS
VL: DIQMTQSPSSLSASVGDRVTITCRASQSISSYLNWYQQKPGKAPKLLIYAVSTLQSGVPSRFSGSGSGTDFTLTISSLQPEDFATYYCQQSGTFPPTTFGQGTKVEIKR
binds: [1] | [2] | [3] | [4] | [5] | [6] | [7] | [8]

B2: humanized anti-CDH6 antibody H02L02 (antibody, human IgG1, kappa, V domains shown)
VH: EVQLVQSGAEVKKPGASVKVSCKASGYTFTRNFMHWVRQAPGQGLEWMGWIYPGDGETEYNQKFQGRVTITADRSTSTAYMELSSLRSEDTAVYFCARGVYGGFAGGYFDFWGQGTLVTVSS
VL: DIQMTQSPSSLSASVGDRVTITCKASQNIYKNLAWYQQKPGKAPKLLIYDANTLQTGVPSRFSGSGSGSDFTLTISSLQPEDFATYFCQQYYSGWAFGQGTKVEIKR
binds: [1] | [2] | [4] | [9] | [5] | [6] | [8] | [10]

B3: humanized anti-CDH6 antibody H02L03 (antibody, human IgG1, kappa, V domains shown)
VH: B2 VH
VL: B2 VL with P40L, K42E, A43G, S69T, F87Y
binds: [1] | [2] | [4] | [9] | [5] | [6] | [8] | [10]

B4: humanized anti-CDH6 antibody H04L02 (antibody, human IgG1, kappa, V domains shown)
VH: B2 VH with E1Q, V37I, N61A, I70L, F95Y
VL: B2 VL
binds: [1] | [2] | [4] | [9] | [5] | [6] | [8] | [10]

B5: rat anti-CDH6 monoclonal antibody rG019 (antibody, IgG2b, V domains shown)
VH: QVQLQQSGAELVKPGSSVKISCKASGYTFTRNFMHWIKQQPGNGLEWIGWIYCGDGETEYNQKFNGKATLTADRSSSTAYMELSRLTSEDSAVYFCARGVYGGFAGGYFDFWGQGVMVTVSS
VL: DIQMTQSPSLLSASVGDRVTLNCKASQNIYKNLAWYQQKLGEGPKLLIYDANTLQTGIPSRFSGSGSGSDFTLTISSLQPEDVATYFCQQYYSGWAFGGVTNLELKRA
binds: [11] | [12] | [13] | [14] | [15] | [16] | [17] | [18]
